Measurements: the supplement of paper PMC12823440, “Inhibitors supercharge kinase turnover through native proteolytic circuits” (Nature, 2025)
Structures can show the parent of a compound that is named as a salt. The list shows a part of the results. Hit calls seldom repeat between salt and free forms of one compound.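 Kinases, fused to nanoluciferase, were expressed in K562 cells; luminescence was measured every 4 h from 2 to 18 h as percent of control (DMSO = 100%, positive control = 0%). A time point is decreased if signal falls significantly (2 sigma). Hits were called by the authors by a rule that is not shown; the count of time points alone does not decide it.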

By UniProt entry, the sequences of proteins in these tests, tags left out. Where a name states a change or a piece, a line headed by the entry shows the natural chain unless it says otherwise.
UniProt Q9BRS2: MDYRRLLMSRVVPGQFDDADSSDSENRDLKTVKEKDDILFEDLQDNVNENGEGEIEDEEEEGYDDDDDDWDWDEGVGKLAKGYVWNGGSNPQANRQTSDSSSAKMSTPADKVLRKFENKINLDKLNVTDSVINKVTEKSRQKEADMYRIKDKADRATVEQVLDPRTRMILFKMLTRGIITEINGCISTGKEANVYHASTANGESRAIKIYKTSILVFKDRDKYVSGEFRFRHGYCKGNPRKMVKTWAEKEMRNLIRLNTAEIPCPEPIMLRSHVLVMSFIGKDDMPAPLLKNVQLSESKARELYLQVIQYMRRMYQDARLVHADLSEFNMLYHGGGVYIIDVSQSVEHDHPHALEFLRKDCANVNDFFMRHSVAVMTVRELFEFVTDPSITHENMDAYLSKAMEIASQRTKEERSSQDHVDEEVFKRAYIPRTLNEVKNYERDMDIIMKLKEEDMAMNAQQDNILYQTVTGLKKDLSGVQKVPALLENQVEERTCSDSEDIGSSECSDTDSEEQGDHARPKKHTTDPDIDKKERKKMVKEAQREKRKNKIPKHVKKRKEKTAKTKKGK

target: RIOK1 (UniProt Q9BRS2); assay: number of time points (of 5) at which kinase-Nluc abundance scored as decreased, DMSO-normalised (count); higher = more persistent destabilization; settings: K562; 2-18 h

| Structure (SMILES) | number of time points |
| --- | --- |
| COc1ccc(Br)c(C=O)c1O [6-Bromo-2-hydroxy-3-methoxybenzaldehyde] (10 µM) | 0 |
| O=C1C=CC2=C3c4cc(O)c(O)cc4CC3(O)COC2=C1O (configuration not stated) [Hematein] (10 µM) | 0 |
| Cc1cccc(CC(=O)N2CCc3c2ccc(-c2cn(C)c4ncnc(N)c24)c3F)n1 (10 µM) | 0 |
| COCCOc1cnc2ccn([C@H](C)c3nnc4c(F)cc(-c5cnn(C)c5)cn34)c(=O)c2c1 (10 µM) | 0 |
| Cn1cc(C2=C(c3ccc(Cl)cc3Cl)C(=O)NC2=O)c2ccccc21 (10 µM) | 0 |
| COc1cc(N2CCC(N3CCN(C)CC3)CC2)ccc1Nc1ncnc(Nc2ccccc2S(=O)(=O)C(C)C)n1 (10 µM) | 0 |
| COc1c(Nc2ncc(Cl)c(N[C@H]3[C@@H](C(N)=O)[C@@H]4C=C[C@H]3C4)n2)ccc2c1CC[C@@H](N1CCOCC1)CC2 (10 µM) | 0 |
| Cc1ccc(NC(=O)N2CCN(c3nc(N)nc4sc(-c5cccnc5)nc34)CC2)cc1 [PI4KIII beta inhibitor 3] (10 µM) | 0 |
| CNc1cc2c(Nc3cccc(Br)c3)ncnc2cn1 (10 µM) | 0 |
| CC(C)n1c(CO)nc2c(F)cc(-c3nc(Nc4ccc(CN5CCNCC5)cn4)ncc3F)cc21 (10 µM) | 2 |
| CN1CCC(Nc2ccc(C(=O)Nc3cc(-c4ccc5c(c4)OCO5)[nH]n3)cc2)CC1 (10 µM) | 0 |
| CNC(=O)CN1CCC(Oc2cc3c(Nc4cccc(Cl)c4F)ncnc3cc2OC)CC1 [Sapitinib] (10 µM) | 0 |
| O=C(O)c1c[nH]c2cc(Cl)c(-c3ccc(C4(O)CCC4)cc3)cc12 (10 µM) | 0 |
| COc1cc(N2CCC(O)CC2)ccc1Nc1nc(Nc2ccccc2S(=O)(=O)C(C)C)c2[nH]cnc2n1 (10 µM) | 0 |
| O=c1c(O)c(-c2ccc(O)c(O)c2)oc2cc(O)c(O)c(O)c12 [Quercetagetin] (10 µM) | 0 |
| Cc1ncsc1-c1ccc(CNC(=O)[C@@H]2C[C@@H](O)CN2C(=O)[C@@H](NC(=O)COCCOc2ccc(-c3cc(Nc4ccc(OC(F)(F)F)cc4)ncn3)cc2)C(C)(C)C)cc1 (2.5 µM) | 2 |

| Structure (SMILES) | number of time points |
| --- | --- |
| COc1cc(Nc2ccnc3ccc(Br)cc23)cc(OC)c1OC (2.5 µM) | 1 |
| Cc1ccc2c(NS(=O)(=O)c3ccccc3Cl)cccc2c1Oc1ncccc1-c1ccnc(N[C@H]2CCCNC2)n1 (2.5 µM) | 0 |
| CC(C)c1cc2c(c(O)c1O)[C@@]13CCCC(C)(C)[C@@H]1C[C@@H]2OC3=O [Carnosol] (2.5 µM) | 0 |
| Cc1nc2c(NCc3cccc(S(C)(=O)=O)c3)nccn2c1-c1ccc(O)c(F)c1 (10 µM) | 0 |
| CC(C)n1cnc2c(Nc3cccc(Cl)c3)nc(N[C@H]3CCCC[C@@H]3N)nc21 (2.5 µM) | 0 |
| O=c1cc(N2CCOCC2)oc2c(-c3cccc4c3sc3ccccc34)cccc12 (10 µM) | 0 |
| C[C@@H]1COC(Nc2ccc3ncnc(Nc4ccc(OCc5nccs5)c(Cl)c4)c3c2)=N1 [Varlitinib] (10 µM) | 0 |
| Cc1cncc2cccc(S(=O)(=O)N3CCCNC[C@@H]3C)c12 [H-1152 (dihydrochloride)] (10 µM) | 0 |
| CCC[C@H](C)Oc1nc(N)c2[nH]c(=O)n(CCCCCN3CCCCC3)c2n1 (10 µM) | 0 |
| CC(C)(Oc1ccc(Cl)cc1)C(=O)Nc1ccc(OCc2ccc(C#N)cc2)cc1 [AMPK activator 4] (10 µM) | 0 |
| Cc1cc(N2CCOCC2)ccc1Nc1nc(NC2CCCCC2)c2[nH]cnc2n1 (10 µM) | 0 |
| CC(ONC(=O)c1cc(C(F)(F)F)cc(C(F)(F)F)c1)C(=O)Nc1ccc(Cl)cc1 (configuration not stated) (2.5 µM) | 0 |
| O=S(=O)(c1ccc(O)cc1O)N1Cc2cc(O)cc(O)c2C1 (10 µM) | 0 |
| CN1CCN(c2ccc(-n3cc(-c4ccncc4OCC4CCNCC4)cn3)cc2)CC1 [MELK-8a (hydrochloride)] (10 µM) | 3 |
| CCCCC(=O)OCC(=O)[C@]1(O)Cc2c(O)c3c(c(O)c2[C@@H](O[C@H]2C[C@H](NC(=O)C(F)(F)F)[C@H](O)[C@H](C)O2)C1)C(=O)c1c(OC)cccc1C3=O [Valrubicin] (10 µM) | 0 |
| CC(C)=CCC[C@](C)(O[C@@H]1O[C@H](CO[C@@H]2O[C@H](CO)[C@@H](O)[C@H](O)[C@H]2O)[C@@H](O)[C@H](O)[C@H]1O)[C@H]1CC[C@]2(C)[C@@H]1[C@H](O)C[C@@H]1[C@@]3(C)CC[C@H](O[C@@H]4O[C@H](CO)[C@@H](O)[C@H](O)[C@H]4O[C@@H]4O[C@H](CO)[C@@H](O)[C@H](O)[C@H]4O)C(C)(C)[C@@H]3CC[C@]12C [Ginsenoside Rb1] (10 µM) | 0 |

Two entries drawn at random from those above, as already listed:

| Structure (SMILES) | number of time points |
| --- | --- |
| Cc1cncc2cccc(S(=O)(=O)N3CCCNC[C@@H]3C)c12 [H-1152 (dihydrochloride)] (10 µM) | 0 |
| COc1cc(N2CCC(O)CC2)ccc1Nc1nc(Nc2ccccc2S(=O)(=O)C(C)C)c2[nH]cnc2n1 (10 µM) | 0 |
